This assay deals with T1, GFP-tagged Sec24C (UniProt P53992).
T1 sequence: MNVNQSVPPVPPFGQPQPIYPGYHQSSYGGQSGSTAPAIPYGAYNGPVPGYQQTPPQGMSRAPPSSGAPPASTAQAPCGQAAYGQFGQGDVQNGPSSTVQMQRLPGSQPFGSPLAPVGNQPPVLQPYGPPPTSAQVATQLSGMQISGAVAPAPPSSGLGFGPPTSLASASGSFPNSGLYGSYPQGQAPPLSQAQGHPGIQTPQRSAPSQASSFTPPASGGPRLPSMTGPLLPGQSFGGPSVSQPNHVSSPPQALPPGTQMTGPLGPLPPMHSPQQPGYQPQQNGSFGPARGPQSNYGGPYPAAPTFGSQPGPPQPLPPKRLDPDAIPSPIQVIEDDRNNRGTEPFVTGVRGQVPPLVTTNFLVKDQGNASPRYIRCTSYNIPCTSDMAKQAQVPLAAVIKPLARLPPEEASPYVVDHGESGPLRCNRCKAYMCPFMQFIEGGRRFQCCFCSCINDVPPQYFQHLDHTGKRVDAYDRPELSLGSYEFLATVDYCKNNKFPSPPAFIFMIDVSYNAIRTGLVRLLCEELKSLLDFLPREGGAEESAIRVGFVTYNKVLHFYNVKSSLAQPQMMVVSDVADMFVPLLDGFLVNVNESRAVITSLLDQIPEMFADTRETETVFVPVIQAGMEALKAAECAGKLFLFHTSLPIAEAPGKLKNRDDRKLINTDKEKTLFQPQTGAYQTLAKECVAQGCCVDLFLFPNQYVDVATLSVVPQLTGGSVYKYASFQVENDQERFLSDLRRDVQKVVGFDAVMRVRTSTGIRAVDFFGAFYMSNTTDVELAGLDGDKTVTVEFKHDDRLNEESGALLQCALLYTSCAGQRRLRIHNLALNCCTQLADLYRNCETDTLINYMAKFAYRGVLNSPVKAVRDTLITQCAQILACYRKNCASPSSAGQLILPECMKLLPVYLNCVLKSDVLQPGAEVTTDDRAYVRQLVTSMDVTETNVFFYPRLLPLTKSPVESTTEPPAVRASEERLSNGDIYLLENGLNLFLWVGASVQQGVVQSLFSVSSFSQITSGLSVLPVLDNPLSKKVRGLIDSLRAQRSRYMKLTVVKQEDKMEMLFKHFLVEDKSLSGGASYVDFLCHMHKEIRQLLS
Kind of assay: co-IP; GFP-Trap agarose on lysates of HEK293T cells co-transfected with the GFP- or Venus-tagged protein and a Cx36 vector; IP buffer 200 mM NaCl, EDTA, 1% Tx-100, 50 mM TrisHCl pH 7.5; overnight at 4 °C; Cx36 detected by western blot.

Amino acid sequences for entries named in this document (tags omitted).
UniProt O54851: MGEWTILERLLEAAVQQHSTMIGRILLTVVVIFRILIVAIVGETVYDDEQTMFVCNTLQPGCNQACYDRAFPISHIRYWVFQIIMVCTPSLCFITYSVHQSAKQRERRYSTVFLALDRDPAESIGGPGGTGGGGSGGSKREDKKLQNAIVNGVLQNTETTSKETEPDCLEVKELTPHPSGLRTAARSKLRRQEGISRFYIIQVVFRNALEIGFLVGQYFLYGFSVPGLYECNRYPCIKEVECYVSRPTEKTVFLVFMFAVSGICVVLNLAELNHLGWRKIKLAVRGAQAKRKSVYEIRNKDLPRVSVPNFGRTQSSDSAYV

No constants are given. Whether binding was seen depends on the method and setting. In cells and extracts the contact can be indirect. Where a sequence is shown, tags or fusion partners need not be part of it.

For the substance “Connexin 36 (Cx36), wild type (from UniProt O54851 1-321)”, the binding result is “no binding”.
